Paper PMC7500323
No constants are given. Whether binding was seen depends on the method and setting. Binding seen in cells or lysates may run through a third protein. Some results given as binding are weak or reduced against the parent protein; the word gives no strength.

Chains of the proteins cited; added tags and fusions are not shown.
UniProt Q8NFU7: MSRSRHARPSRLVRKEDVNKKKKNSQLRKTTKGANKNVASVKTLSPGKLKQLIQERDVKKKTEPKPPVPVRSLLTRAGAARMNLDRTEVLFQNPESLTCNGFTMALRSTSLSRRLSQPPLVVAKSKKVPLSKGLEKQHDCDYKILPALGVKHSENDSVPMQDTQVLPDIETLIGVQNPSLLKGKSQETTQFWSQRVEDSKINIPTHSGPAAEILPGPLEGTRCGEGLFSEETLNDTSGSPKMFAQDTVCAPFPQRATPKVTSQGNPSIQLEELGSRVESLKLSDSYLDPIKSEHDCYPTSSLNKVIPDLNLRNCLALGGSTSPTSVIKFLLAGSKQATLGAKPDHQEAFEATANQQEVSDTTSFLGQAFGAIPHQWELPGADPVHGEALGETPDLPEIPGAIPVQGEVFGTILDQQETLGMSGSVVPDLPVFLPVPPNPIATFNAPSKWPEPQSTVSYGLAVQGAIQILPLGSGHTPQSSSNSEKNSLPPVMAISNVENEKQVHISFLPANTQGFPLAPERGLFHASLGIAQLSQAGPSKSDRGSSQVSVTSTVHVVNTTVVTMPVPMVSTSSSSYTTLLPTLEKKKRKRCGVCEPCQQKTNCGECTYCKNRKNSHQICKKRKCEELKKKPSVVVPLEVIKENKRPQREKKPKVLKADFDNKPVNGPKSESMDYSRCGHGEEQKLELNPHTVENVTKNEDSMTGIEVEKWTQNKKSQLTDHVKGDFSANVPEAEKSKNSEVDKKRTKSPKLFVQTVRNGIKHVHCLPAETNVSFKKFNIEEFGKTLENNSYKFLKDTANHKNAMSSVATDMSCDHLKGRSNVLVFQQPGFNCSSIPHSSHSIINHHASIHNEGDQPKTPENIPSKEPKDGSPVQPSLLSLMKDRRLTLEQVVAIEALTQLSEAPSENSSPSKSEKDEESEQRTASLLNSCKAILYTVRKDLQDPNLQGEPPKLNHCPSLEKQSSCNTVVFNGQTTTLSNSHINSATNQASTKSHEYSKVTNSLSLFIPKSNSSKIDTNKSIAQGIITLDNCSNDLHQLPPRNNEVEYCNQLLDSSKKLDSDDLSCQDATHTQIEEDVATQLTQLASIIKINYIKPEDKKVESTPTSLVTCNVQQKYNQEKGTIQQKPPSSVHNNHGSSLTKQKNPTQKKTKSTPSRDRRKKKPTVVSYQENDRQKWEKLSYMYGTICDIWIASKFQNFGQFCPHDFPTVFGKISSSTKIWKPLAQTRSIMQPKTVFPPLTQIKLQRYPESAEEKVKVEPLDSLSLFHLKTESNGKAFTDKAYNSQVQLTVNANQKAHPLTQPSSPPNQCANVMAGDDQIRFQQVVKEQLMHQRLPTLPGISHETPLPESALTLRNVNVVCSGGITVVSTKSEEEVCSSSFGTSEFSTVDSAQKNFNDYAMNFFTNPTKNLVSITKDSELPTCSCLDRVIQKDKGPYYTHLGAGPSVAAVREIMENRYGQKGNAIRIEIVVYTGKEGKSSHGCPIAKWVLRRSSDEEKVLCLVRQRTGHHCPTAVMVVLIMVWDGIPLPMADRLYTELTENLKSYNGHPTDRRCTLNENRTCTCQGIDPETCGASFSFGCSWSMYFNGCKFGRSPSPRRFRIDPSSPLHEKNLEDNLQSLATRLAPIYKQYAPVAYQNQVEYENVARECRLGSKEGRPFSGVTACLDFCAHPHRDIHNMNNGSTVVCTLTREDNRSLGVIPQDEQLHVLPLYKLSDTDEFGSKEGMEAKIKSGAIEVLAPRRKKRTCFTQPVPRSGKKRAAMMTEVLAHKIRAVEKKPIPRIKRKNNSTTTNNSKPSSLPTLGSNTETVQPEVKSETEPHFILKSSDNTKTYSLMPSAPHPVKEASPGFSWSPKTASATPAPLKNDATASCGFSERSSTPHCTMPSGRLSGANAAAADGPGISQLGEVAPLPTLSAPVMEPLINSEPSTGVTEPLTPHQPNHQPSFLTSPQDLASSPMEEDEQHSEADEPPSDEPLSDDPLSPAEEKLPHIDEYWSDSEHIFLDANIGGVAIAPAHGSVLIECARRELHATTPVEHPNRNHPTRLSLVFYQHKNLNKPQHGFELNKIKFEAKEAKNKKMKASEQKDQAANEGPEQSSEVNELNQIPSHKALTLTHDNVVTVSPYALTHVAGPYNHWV
UniProt Q99814: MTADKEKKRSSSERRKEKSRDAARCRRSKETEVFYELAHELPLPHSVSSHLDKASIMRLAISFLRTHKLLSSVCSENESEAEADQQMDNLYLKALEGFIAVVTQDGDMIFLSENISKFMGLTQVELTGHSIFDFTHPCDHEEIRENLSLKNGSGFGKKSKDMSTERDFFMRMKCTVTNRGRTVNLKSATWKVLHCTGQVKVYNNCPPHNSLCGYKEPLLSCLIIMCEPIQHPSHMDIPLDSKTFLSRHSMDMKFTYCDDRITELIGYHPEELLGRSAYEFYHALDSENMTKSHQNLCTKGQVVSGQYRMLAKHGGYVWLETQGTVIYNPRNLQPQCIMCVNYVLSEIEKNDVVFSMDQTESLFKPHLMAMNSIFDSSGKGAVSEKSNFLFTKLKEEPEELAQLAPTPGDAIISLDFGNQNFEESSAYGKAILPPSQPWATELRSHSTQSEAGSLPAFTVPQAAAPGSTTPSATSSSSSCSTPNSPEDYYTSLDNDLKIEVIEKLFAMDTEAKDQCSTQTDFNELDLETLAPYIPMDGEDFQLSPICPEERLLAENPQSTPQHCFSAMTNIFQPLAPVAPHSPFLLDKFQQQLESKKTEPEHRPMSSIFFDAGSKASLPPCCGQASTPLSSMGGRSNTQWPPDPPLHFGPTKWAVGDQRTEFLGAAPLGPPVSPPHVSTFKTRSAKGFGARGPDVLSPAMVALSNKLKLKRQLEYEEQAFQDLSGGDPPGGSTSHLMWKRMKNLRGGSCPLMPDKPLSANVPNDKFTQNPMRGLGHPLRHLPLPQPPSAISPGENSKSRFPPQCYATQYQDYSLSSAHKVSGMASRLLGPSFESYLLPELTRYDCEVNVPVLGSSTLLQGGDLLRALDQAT

Target: ten-eleven translocation 1 (TET1) (human (endogenous in Ishikawa cells)) (UniProt Q8NFU7)
Test: co-IP; hypoxia-treated ISK cells lysed in RIPA buffer with phosphatase inhibitors; 750 µl lysate with 2 µg antibody (rabbit HIF-2α, mouse HIF-1α or rabbit TET1) overnight at 4 °C; Protein G Plus/Protein A agarose 2 h at 4 °C; western blotting; rabbit and mouse IgG as negative controls

With “hypoxia-inducible factor 2α (HIF-2α) (from UniProt Q99814 1-870)” as the substance, how does the binding read?
The binding was “binds”.
